The values that follow are results of earlier work, collected in US20150344404A1, “PDK4 INHIBITOR AND USE THEREOF” (THE KITASATO INSTITUE, priority 2012, published 2015).

This series deals with PDK. The note with it: cited from earlier work.

Regarding `CN[C@@H]1C[C@H]2O[C@@](C)([C@@H]1OC)n1c3ccccc3c3c4c(c5c6ccccc6n2c5c31)C(=O)NC4` [staurosporine], the “inhibition of PDK” value is reported as “not inhibited totally”.
